Binding data for four molecules are collected here from paper doi:10.1101/2020.11.15.383513.

Holding throughout (experiment): affinity purification with mass spectrometry
The target in assay [1] is actin (yeast, from total yeast cell extract) (S. cerevisiae (endogenous in yeast cell extract)) (UniProt P60010).
The target of assay [2] is T1, bicyclic peptide A15 (F-/G-actin).
T1 sequence (peptide, FITC labeled (position not stated); bicyclic (circularized)): ACYRQWNKCENGWVRCG

Assay [3] deals with T2, bicyclic peptide A18 (F-actin specific).
T2 sequence (peptide, FITC labeled (position not stated); bicyclic (circularized)): ACREGQVACMVRKFECG

Assay [4] concerns the target actin (yeast, from total yeast cell extract) (S. cerevisiae (endogenous in yeast cell extract)) (UniProt P60010). This is another data set of the same source.

Like-named read-outs stand apart in the source and are kept apart here. These are yes or no findings as the source states them, for the method shown. Binding seen in cells or lysates may run through a third protein. A yes stands for co-enrichment or nearness to the bait. Other partners may have been found.

Regarding Las17 (from UniProt Q12446 1-633), the binding entry in assay [1] is “binds”.
For the molecule “actin (yeast, from total yeast cell extract) (from UniProt P60010 1-375)”, the binding result in assay [2] and in assay [3] was “binds” in each case.

B1: Sla2 (protein, UniProt P33338 1-968)
chain: MSRIDSDLQKALKKACSVEETAPKRKHVRACIVYTWDHQSSKAVFTTLKTLPLANDEVQLFKMLIVLHKIIQEGHPSALAEAIRDRDWIRSLGRVHSGGSSYSKLIREYVRYLVLKLDFHAHHRGFNNGTFEYEEYVSLVSVSDPDEGYETILDLMSLQDSLDEFSQIIFASIQSERRNTECKISALIPLIAESYGIYKFITSMLRAMHRQLNDAEGDAALQPLKERYELQHARLFEFYADCSSVKYLTTLVTIPKLPVDAPDVFLINDVDESKEIKFKKREPSVTPARTPARTPTPTPPVVAEPAISPRPVSQRTTSTPTGYLQTMPTGATTGMMIPTATGAANAIFPQATAQMQPDFWANQQAQFANEQNRLEQERVQQLQQQQAQQELFQQQLQKAQQDMMNMQLQQQNQHQNDLIALTNQYEKDQALLQQYDQRVQQLESEITTMDSTASKQLANKDEQLTALQDQLDVWERKYESLAKLYSQLRQEHLNLLPRFKKLQLKVNSAQESIQKKEQLEHKLKQKDLQMAELVKDRDRARLELERSINNAEADSAAATAAAETMTQDKMNPILDAILESGINTIQESVYNLDSPLSWSGPLTPPTFLLSLLESTSENATEFATSFNNLIVDGLAHGDQTEVIHCVSDFSTSMATLVTNSKAYAVTTLPQEQSDQILTLVKRCAREAQYFFEDLMSENLNQVGDEEKTDIVINANVDMQEKLQELSLAIEPLLNIQSVKSNKETNPHSELVATADKIVKSSEHLRVDVPKPLLSLALMIIDAVVALVKAAIQCQNEIATTTSIPLNQFYLKNSRWTEGLISAAKAVAGATNVLITTASKLITSEDNENTSPEQFIVASKEVAASTIQLVAASRVKTSIHSKAQDKLEHCSKDVTDACRSLGNHVMGMIEDDHSTSQQQQPLDFTSEHTLKTAEMEQQVEILKLEQSLSNARKRLGEIRRHAYYNQDDD
With B1, the binding entry in assay [4] is recorded as “binds”.

B2: Pan1 (protein, UniProt P32521 1-1480)
chain: MYNPYQQQGMGYQQQQQQQQQQPNGFYPQQQQGQSSNQPQGQPQPQQQMAFNQPQATGIGGMPQSFGNSFSSMPQQPQTGYNNNGNNGSVYGNGNFGQQPQQQQQQAKPQHTGYVPNSSMPMMNTTGTMPPPNPAQQPQLQSIQPQGTGYYQAANTANVHSVQPLQSQGTGYYVSTPNLISSNQTQQPLQAQGTGYYQSQPQQVPPPQQAQSLQPLKPQQTGFYLQPQNQAPLEPLKPTATGFVNSFANNGLNNDIKIPAIRLSFITAQDQAKFETLFRSIVTNGSNTVSGANCRKILMRSGLPPSQLARIWTLCDTSKAGELLFPEFALAMHLINDVLQGDTIPYELDSKTKNEVSSFIDAINLSIANQDSSANDAPKTPFDEFITAGVQNLQPQPTGYMPQTSFGIPLQSQITGGGVASALNPQSTGFMAPTTFNMSMNTGTPGLNPQITGGAPASMQPNITGNALQPQTTGMMPQTTGMMPQTTGMMPQTSFGVNLGPQLTGGALQSQYTGGYGSVMPQQSGPASMPNLSFNQQGLQSQLTGLQPQPTGFLPPSNFSATMPLTAQKTGFGNNEIYTKSNFNNNLIDNSSQDKISTEEKSLFYKIFETFDTQNKGLLDSPTAVEIFRKSGLNRADLEQIWNLCDINNTGQLNKQEFALGMHLVYGKLNGKPIPNVLPSSLIPSSTKLLDNLKNQLKTEPTTTKEKPSFGKIDALSYKNNDDDVLPNYRNRRKVYSAKNEEQSSFSSPSAKSVNHSSSTLQTDDISVDKTVEKKTAKPKYAGFSREINLKNIASLENEIKNISNPENCYDSSIPSDLTSRFDAIIAKLPNLFNEISTIDNEITNAKIQLYRKKNPSSIIGSGPNGEITENDRKKAKSRALLRARMSALTGKSTESEDSLSMEDEQQSAEIKRIQQENGKNQEIIKDIRSSISDISASLKSTMTGSNMISNQEFERWEFGIGLEDGVREFLDDLKSNSNKSVTESSPFVPSSTPTPVDDRSSSPSYSQFKTAEERAAYLKEQAKKRMKEKLAKFDKNRRNVTQSSRSISSENSREQPQQIAGSSNLVEPRATPFQEEKYVEVAQPTQPVQSTQPVQPTQPVQPTQPVQPTQPVQPTQPVQPTQPVQNVYNAKQESDDEDEDDEEKRLQEELKRLKLKKKADKEKRLAALRKQIEDAQNESDEEETNGKDNFGGHVNVPQAAPVAPSAAFSQNSTNAPRSVHAAVTPAAGKNSTGLPSTTMGHNPYFKDASASSTSTFDARAAEMQRRIQRGLDEDEDDGWSDEDESNNRVAVDNKVEEAKIGHPDHARAPPVTAAPLPSVTPVPPAVPVPQANTSNEKSSPIPIAPIPPSVTQEPPVPLAPPLPAVDGFQEPPIPSAPAIATAVQKSGSSTPALAGGVLPPPPPLPTQQASTSEPIIAHVDNYNGAEKGTGAYGSDSDDDVLSIPESVGTDEEEEGAQPVSTAGIPSIPPAGIPPPPPLP
Take B2: the binding entry in assay [4] was “binds”.
